For 19 compounds, T/C and survivor count results are on record in PubChem BioAssay AID200 (DTP/NCI, 2004).

In the assay the test system is B6C3F1 mice, B16 melanoma ip, median survival T/C. Description: NCI In Vivo Anticancer Drug Screen. Data for tumor model B16 Melanoma (intraperitoneal) in B6C3F1 mice. The settings on record: T/C endpoint: median survival time, schedule: Q01DX009 (ip), higher T/C = longer survival. The gist of the method:
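Tumor-bearing mice received test compound; a separate group got vehicle only. Survival was then compared, with results reported as treated over control.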

The mark [1] stands for this setting: dose: 25.0 mg/kg/injection, vehicle: saline with Tween-80.
Setting [2] is: dose: 50.0 mg/kg/injection, vehicle: saline with Tween-80.
[3] abbreviates: dose: 100.0 mg/kg/injection, vehicle: saline with Tween-80.
Where [4] appears, read: dose: 200.0 mg/kg/injection, vehicle: saline with Tween-80.
Where [5] appears, read: dose: 8.0 mg/kg/injection, vehicle: saline.
Where [6] appears, read: dose: 16.0 mg/kg/injection, vehicle: saline.
Setting [7] is: dose: 400.0 mg/kg/injection, vehicle: saline with Tween-80.
The mark [8] stands for this setting: dose: 800.0 mg/kg/injection, vehicle: Klucel (hydroxypropylcellulose) (HPC).
[9] abbreviates: dose: 400.0 mg/kg/injection, vehicle: Klucel (hydroxypropylcellulose) (HPC).

The list shows only some results of the screen, not a fair sample: it gathers tests that were run many times, whatever their T/C, doses with no T/C, and many T/C values between a quarter and a half above the control. Further doses and runs are listed elsewhere. T/C: endpoint of the treated group in % of that of the vehicle group. Some entries give survivors of the animals treated and no T/C: the source holds a T/C of zero for them, seemingly a mark for toxic or unscored doses. Some survivor counts are full or nearly so, which does not show that the dose was tolerated: the source hardly ever lists a survival T/C far under the control, and the zero likely stands for such cases as well. Counts of survivors are from the toxicity check (mostly the fifth day) where no day follows; animals may have died later. Schedule codes are those of the source, taken here to give the interval after Q, in days (D) or hours (H), and the number of doses after X. Some entries hold several experiments; their values stand side by side, smallest first. Where survival is the endpoint, this PubChem deposit counts one and a half times the control or more as active, and values a quarter to a half above the control carry no call in these data; other NCI protocols may use other cut-offs. Some T/C values carry the count of animals alive at the toxicity check (mostly the fifth day); without a count, all were alive then.

On to `CCCCNP1(NCCCC)=NP(NCCCC)(NCCCC)=NP(NCCCC)(NCCCC)=NP(NCCCC)(NCCCC)=N1`, for which the T/C was 128 % of control under setting [1] and 142 % of control under setting [2]. Further, the survivor count reads like this: under setting [2], 10 of 10; under setting [3], 1 of 10, 5 of 10, 10 of 10; under setting [4], 2 of 10.

Take `COC1=C(OC)C(=O)C(Sc2ccc3ccccc3c2)=CC1=O`: the survivor count was 10 of 10 under setting [1]; 10 of 10 under setting [2]; 6 of 10 and 8 of 10 under setting [3]; 2 of 10 under setting [4].

As for `COc1cc2c(cc1O)N=C[C@@H]1CCC(O)N1C2=O` (mixture of isomers), the survivor count under setting [5] is 8 of 10; the survivor count under setting [6] is 1 of 10 and 2 of 10.

`COc1cccc(C2NC(=O)c3c(n[nH]c3N)S2)c1O` (centres undefined): the survivor count under setting [7] is 2 of 10.

Turning to `CSC1SCC2C(=O)N(C)C(C(C)C)C(=O)OCC(NC(=O)c3cnc4ccccc4n3)C(=O)NC(C)C(=O)N(C)C1C(=O)N(C)C(C(C)C)C(=O)OCC(NC(=O)c1cnc3ccccc3n1)C(=O)NC(C)C(=O)N2C` (centres undefined), the T/C (dose: 8.0 micrograms/kg/injection, vehicle: saline) is 137 % of control; the T/C (dose: 15.0 micrograms/kg/injection, vehicle: saline) was 146 % of control; the T/C (dose: 16.0 micrograms/kg/injection, vehicle: saline) is 147 % of control; the T/C (dose: 30.0 micrograms/kg/injection, vehicle: saline with Tween-80) was 126 % of control; the T/C (dose: 120.0 micrograms/kg/injection, vehicle: saline with Tween-80) was 138 % of control; the T/C (dose: 240.0 micrograms/kg/injection, vehicle: saline with Tween-80) was 138 % of control. Also, the survivor count (dose: 480.0 micrograms/kg/injection, vehicle: saline) is recorded as 6 of 10.

As for `c1ccc2sc(SSN3CC4CCC(CC4)C3)nc2c1`, the survivor count is, setting by setting: under setting [3], 10 of 10; under setting [4], 9 of 10; under setting [7], 10 of 10.

For the compound `Clc1ccc(C2SC=Cc3ccccc32)cc1` (centres undefined), the survivor count under setting [8] is given as 0 of 10.

As for `COc1cc(C(=O)c2cocc2C(=O)c2ccc3c(c2)OCO3)cc(OC)c1OC`, the T/C reads like this: (dose: 100.0 mg/kg/injection, vehicle: Klucel (hydroxypropylcellulose) (HPC)) 129 % of control; (dose: 200.0 mg/kg/injection, vehicle: Klucel (hydroxypropylcellulose) (HPC)) 139 and 144 % of control; under setting [9], 130 [8 of 9 alive] and 148 % of control. Moreover, the survivor count under setting [8] is 8 of 10.

Regarding `C[C@@](O)(/C=C/[C@H]1CC=CC(=O)O1)[C@@H](C[C@@H](O)\C=C/C=C\C=C\CO)OP(=O)(O)O`, for the setting “dose: 50.0 mg/kg/injection, vehicle: other”, the survivor count was 0 of 10 and 2 of 10.

In the case of `[Cl][Mn][Cl]`, the T/C runs as follows: (dose: 1.0 mg/kg/injection, vehicle: saline) 129 % of control; under setting [5], 128 % of control; under setting [6], 130 and 142 % of control; (dose: 32.0 mg/kg/injection, vehicle: saline) 129 and 136 % of control; (dose: 64.0 mg/kg/injection, vehicle: saline) 145 % of control [9 of 10 alive]. Besides, where the note is “dose: 128.0 mg/kg/injection, vehicle: saline”, the survivor count is 0 of 10 and 1 of 10.

On to `CC[C@@]1(O)C(=O)OCc2c1cc1n(c2=O)Cc2cc3ccccc3nc2-1`, for which the T/C is 129 % of control (dose: 0.19 mg/kg/injection, vehicle: other); 137 % of control (dose: 0.38 mg/kg/injection, vehicle: other); 149 % of control (dose: 0.75 mg/kg/injection, vehicle: other); 149 % of control (dose: 0.75 mg/kg/injection, vehicle: saline with Tween-80). The survivor count is, setting by setting: (dose: 1.5 mg/kg/injection, vehicle: other) 10 of 10; (dose: 3.0 mg/kg/injection, vehicle: other) 7 of 10; (dose: 6.0 mg/kg/injection, vehicle: saline with Tween-80) 10 of 10; (dose: 12.0 mg/kg/injection, vehicle: saline with Tween-80) 10 of 10.

Turning to `C=Cc1cnc([N+](=O)[O-])n1C`, the survivor count under setting [9] was 0 of 10.

As to `COCC(CN1CCN(c2ccccc2OC)CC1)OC` (centres undefined), the survivor count by setting is: under setting [3], 4 of 10; under setting [4], 1 of 10; under setting [7], 0 of 10.

Consider `O=CN(SSN(C=O)C1CCCCC1)C1CCCCC1`, for which the survivor count under setting [7] is reported as 9 of 10.

In the case of `O=C(CNC(=O)OCc1ccccc1)NCC(=O)NC(Cc1c[nH]c2ccccc12)C(=O)O` (centres undefined), the survivor count (dose: 50.0 mg/kg/injection, vehicle: suspension in saline) is 10 of 10. Also, the T/C (dose: 200.0 mg/kg/injection, vehicle: suspension in saline) was 138 % of control.

As for `NC(=O)c1cc(Cl)nc2nc(Cl)nc(N)c12`, the survivor count runs as follows: under setting [1], 10 of 10; under setting [2], 10 of 10; under setting [3], 10 of 10; under setting [4], 9 of 9; under setting [7], 10 of 10.

As for `O=C(CCl)NC(Cc1ccc(O)cc1)C(=O)O` (centres undefined), the survivor count is 10 of 10 under setting [1] and 10 of 10 under setting [4].

As to `COc1ccc(C(C)c2cc3c(cc2OC)OCO3)cc1` (centres undefined), under setting [7], the survivor count is on record as 6 of 10.

Regarding `COC1C(N)C(OC2C(Oc3cccc4c(O)c5c(=O)oc6ccc(C)c7c(=O)oc(c34)c5c67)OC(C)C(O)C2(C)O)OC(C)C1O` (centres undefined), the survivor count runs as follows: (dose: 14.0 mg/kg/injection, vehicle: DMSO) 2 of 10; (dose: 20.0 mg/kg/injection, vehicle: other) 0 of 8.
